Results on six substances are retold here after paper PMC3316669.

These are yes or no findings as the source states them, for the method shown. Binding calls can cover weak binding; strength is not graded here. Where a sequence is shown, tags or fusion partners need not be part of it.

The experiment has as its target T1, TorD with N-terminal His-tag (E. coli) (UniProt P36662).
T1 sequence: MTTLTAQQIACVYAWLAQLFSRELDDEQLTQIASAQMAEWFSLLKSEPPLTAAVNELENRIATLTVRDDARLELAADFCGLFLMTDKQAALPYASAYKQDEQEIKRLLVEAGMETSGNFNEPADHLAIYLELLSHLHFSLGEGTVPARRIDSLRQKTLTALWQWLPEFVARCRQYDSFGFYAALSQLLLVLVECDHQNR
The experiment is described as follows: SPR; qualitative; His-tagged REMP held on a Ni-NTA chip to 1000 RU, pre-protein injected (100 or 200 nM shown; 20 to 400 nM for the chimeras), 60 s, 50 µl/min, 25°C; 10 mM HEPES, 150 mM NaCl, 50 µM EDTA, 0.005% P20, pH 7.4; both purified.
As for “DTD-GFP (ssDmsA-GFP with the H-region of ssTorA) (E. coli) (domain or fragment)”, the binding entry was “no binding (tested: 20 to 400 nM)”.

As for “TDD-GFP (ssDmsA-GFP with the N-region of ssTorA) (E. coli) (domain or fragment)”, the binding result is listed as “no binding (tested: 20 to 400 nM)”. For “DTT-GFP (ssTorA-GFP with the N-region of ssDmsA) (E. coli) (domain or fragment)”, the binding entry is “binds”.

Regarding “DDT-GFP (ssDmsA-GFP with the C-region of ssTorA) (E. coli) (domain or fragment)”, the binding entry is recorded as “no binding (tested: 20 to 400 nM)”. On to “TTD-GFP (ssTorA-GFP with the C-region of ssDmsA) (E. coli) (domain or fragment)”, for which the binding entry was “binds weakly”. As for “TDT-GFP (ssTorA-GFP with the H-region of ssDmsA) (E. coli) (domain or fragment)”, the binding entry is given as “binds weakly”.
